Reference: paper PMC9830429
Results are given in words; binding and its absence hold for the method and conditions named. Binding seen in cells or lysates may run through a third protein. Some entries that bind do so weakly or less than the wild type.

Sequences of proteins named here, by UniProt entry; tags and fusion partners are left off. A change or cut given only in a name is not applied to a line headed by its entry.
UniProt Q05397: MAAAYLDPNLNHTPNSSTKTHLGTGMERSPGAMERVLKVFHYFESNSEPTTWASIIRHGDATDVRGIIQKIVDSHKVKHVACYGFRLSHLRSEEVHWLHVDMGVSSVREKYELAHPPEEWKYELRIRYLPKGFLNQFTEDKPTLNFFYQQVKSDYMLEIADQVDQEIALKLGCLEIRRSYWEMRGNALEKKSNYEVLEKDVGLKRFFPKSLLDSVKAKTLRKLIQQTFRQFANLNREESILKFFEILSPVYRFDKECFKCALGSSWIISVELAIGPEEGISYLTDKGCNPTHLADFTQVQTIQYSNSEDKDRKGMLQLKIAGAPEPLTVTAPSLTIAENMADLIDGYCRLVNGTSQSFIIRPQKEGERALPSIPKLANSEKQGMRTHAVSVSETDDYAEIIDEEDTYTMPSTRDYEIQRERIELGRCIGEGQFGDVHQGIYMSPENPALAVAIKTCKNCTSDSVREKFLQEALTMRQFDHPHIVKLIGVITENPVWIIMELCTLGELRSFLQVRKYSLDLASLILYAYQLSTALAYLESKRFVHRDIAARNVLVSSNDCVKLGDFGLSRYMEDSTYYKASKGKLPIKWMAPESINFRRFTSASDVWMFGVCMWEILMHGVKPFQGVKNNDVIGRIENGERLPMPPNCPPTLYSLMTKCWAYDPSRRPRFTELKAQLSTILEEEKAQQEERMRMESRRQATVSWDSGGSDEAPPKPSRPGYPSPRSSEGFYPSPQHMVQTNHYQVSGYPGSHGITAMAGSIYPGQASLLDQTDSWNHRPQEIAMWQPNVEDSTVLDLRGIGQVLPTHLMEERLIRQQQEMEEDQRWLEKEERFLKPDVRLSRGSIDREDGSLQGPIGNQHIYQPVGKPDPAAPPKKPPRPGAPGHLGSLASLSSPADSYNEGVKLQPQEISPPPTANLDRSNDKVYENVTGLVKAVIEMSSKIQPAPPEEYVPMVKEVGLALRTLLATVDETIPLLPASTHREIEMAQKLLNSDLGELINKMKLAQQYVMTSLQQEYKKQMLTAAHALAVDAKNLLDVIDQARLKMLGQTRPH
UniProt P05556: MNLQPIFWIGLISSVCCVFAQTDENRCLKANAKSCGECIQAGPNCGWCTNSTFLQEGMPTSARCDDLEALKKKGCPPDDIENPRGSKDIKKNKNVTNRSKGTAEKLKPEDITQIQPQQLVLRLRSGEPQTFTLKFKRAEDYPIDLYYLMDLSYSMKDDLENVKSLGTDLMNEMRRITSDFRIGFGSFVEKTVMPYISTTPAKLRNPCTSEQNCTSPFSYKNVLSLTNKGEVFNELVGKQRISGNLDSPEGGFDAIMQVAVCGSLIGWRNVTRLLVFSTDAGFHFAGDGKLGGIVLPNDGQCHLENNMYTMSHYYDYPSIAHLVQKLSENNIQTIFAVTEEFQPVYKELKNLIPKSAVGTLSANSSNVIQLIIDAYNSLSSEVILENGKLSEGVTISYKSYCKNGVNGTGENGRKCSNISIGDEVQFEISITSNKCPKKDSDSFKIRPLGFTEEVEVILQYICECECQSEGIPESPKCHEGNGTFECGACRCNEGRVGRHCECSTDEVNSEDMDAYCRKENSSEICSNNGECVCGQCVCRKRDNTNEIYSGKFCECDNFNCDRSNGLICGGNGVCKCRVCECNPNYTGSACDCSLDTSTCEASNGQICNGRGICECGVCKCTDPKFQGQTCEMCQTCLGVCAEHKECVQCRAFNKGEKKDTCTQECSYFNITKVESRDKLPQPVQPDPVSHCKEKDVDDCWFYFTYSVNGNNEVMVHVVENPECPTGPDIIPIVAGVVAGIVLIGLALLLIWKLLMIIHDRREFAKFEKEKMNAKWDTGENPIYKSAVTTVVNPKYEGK

Biological target: focal adhesion kinase (human (endogenous in EOC cell lines)) (UniProt Q05397)
Test: co-IP; supernatant of 1 x 10^7 EOC cells in IP lysis buffer; IgG or IP antibodies 2 h at 4 °C, protein A/G magnetic beads 2 h at 4 °C; rinsed thrice with high-salt or low-salt buffer; read by silver staining and western blotting

binding: binds
Substance: integrin subunit beta 1 (from UniProt P05556 21-798) (receptor)
